Results taken from the supplement of paper PMC10849652.
The other results are listed elsewhere or left out.

Protein sequences, listed by entry. Tags and fused reporters are not part of them. Lines headed by an entry give the natural chain unless they say otherwise; changes in a name come on top.
UniProt Q15274: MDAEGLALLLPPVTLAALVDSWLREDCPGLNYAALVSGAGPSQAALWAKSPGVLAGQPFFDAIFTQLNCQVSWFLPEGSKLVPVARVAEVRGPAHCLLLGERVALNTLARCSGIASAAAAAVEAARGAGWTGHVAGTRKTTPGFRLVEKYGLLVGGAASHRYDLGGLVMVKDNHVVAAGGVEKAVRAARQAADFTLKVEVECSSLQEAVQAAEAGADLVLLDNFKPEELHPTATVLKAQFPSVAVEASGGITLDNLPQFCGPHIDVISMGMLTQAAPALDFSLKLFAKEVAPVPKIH
UniProt Q9Y6I8: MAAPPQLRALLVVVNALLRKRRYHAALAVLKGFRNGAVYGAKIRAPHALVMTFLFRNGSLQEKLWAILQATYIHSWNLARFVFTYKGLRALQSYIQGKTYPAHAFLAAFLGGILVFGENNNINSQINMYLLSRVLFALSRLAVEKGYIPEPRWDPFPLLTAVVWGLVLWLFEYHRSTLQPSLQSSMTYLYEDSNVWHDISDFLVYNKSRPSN
UniProt O95758: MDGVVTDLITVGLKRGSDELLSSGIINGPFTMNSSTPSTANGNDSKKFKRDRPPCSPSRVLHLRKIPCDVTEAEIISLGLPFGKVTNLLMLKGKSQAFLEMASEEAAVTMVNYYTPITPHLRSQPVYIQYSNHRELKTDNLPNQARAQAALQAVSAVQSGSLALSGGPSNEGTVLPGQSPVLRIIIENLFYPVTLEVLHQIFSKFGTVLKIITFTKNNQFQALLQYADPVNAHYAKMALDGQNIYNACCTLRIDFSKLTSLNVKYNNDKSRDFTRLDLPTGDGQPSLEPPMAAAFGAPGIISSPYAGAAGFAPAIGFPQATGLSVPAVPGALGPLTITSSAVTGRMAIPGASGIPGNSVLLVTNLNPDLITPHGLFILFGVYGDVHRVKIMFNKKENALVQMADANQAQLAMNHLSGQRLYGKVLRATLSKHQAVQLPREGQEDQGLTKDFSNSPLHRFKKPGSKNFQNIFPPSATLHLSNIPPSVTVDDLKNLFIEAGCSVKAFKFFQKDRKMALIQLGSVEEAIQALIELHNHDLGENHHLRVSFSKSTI
UniProt Q9BT73: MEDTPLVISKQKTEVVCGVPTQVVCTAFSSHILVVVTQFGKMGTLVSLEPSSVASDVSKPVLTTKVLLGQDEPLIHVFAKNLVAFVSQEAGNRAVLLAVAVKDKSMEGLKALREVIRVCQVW
UniProt Q9BVG9: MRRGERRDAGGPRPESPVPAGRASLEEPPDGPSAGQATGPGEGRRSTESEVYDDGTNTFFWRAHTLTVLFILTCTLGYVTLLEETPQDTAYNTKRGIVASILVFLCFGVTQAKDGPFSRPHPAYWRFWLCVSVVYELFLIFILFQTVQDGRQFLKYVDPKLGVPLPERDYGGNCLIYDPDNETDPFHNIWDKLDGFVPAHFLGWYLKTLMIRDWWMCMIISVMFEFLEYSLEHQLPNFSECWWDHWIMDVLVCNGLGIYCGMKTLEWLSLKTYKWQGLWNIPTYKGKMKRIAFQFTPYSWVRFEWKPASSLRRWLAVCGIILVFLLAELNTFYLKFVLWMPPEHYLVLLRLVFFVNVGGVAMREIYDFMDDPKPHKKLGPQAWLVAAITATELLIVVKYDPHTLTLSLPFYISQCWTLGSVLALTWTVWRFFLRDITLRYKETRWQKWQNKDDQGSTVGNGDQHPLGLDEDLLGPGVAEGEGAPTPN
UniProt Q92530: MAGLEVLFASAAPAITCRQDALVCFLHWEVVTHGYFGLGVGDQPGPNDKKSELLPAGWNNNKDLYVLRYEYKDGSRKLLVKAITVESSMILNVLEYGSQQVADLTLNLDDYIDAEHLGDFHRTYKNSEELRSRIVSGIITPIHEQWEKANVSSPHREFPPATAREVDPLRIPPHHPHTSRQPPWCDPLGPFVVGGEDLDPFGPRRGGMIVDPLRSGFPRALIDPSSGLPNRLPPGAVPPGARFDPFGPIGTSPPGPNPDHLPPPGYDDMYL
UniProt P09417: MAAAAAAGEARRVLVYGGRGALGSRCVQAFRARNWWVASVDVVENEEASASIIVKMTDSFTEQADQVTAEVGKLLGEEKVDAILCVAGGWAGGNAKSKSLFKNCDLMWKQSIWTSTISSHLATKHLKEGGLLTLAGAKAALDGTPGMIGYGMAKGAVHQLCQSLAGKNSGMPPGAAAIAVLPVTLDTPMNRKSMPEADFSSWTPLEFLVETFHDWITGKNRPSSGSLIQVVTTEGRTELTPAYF
UniProt P18031: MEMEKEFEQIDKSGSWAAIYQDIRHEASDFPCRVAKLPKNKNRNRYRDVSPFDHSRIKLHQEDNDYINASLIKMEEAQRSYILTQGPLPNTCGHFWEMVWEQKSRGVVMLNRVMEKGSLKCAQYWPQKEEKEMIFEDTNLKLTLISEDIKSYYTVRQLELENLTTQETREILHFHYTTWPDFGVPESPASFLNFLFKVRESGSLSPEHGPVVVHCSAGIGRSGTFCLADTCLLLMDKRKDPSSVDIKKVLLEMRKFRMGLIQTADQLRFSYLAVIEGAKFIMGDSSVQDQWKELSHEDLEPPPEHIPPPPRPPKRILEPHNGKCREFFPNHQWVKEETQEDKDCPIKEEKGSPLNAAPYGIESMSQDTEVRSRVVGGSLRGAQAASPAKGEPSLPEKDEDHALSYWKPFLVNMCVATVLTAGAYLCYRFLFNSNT

Legend:
Experiment in all cases: log2 fold change, soluble protein after heating vs DMSO (PISA); higher = thermal stabilisation; K562 cells, 10 uM, 30 min; active = over 0.2 and 3.5 SD of the protein, either way, in both replicates (recomputed)
saracatinib = compound: CN1CCN(CCOc2cc(OC3CCOCC3)c3c(Nc4c(Cl)ccc5c4OCO5)ncnc3c2)CC1 [saracatinib]
Method in brief: (§1)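 For each measurement, 10 μM compound was applied for 30 min to K562 cells at 2×10^6 cells/mL. Aliquots were heated for 3 min across 48°C-58°C, pooled, and extracted in PBS with 0.5% NP-40 at 4°C; the supernatant after 21,000xg for 90 min was soluble protein. This was quantified by TMTpro 16plex LC-MS/MS with channel sums equalised, and thermal stability was reported relative to control samples from duplicates, on a log2 fold-change scale.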

sotrastaurin = compound: CN1CCN(c2nc(C3=C(c4c[nH]c5ccccc45)C(=O)NC3=O)c3ccccc3n2)CC1 [sotrastaurin]
Method in brief: as §1

alvocidib = compound: CN1CC[C@H](c2c(O)cc(O)c3c(=O)cc(-c4ccccc4Cl)oc23)[C@H](O)C1 [alvocidib]
Method in brief: as §1

Tubastatin A = compound: CN1CCc2c(c3ccccc3n2Cc2ccc(C(=O)NO)cc2)C1 [Tubastatin A]
Method in brief: as §1

[1] = compound: CNC(=O)C1=CC=CC=C1NC2=NC(=NC=C2Cl)NC3=C(C=C(C=C3)N4CCOCC4)OC
Method in brief: as §1

defactinib = compound: CNC(=O)c1ccc(Nc2ncc(C(F)(F)F)c(NCc3nccnc3N(C)S(C)(=O)=O)n2)cc1 [defactinib]
Method in brief: as §1

rucaparib = compound: CNCc1ccc(-c2[nH]c3cc(F)cc4c3c2CCNC4=O)cc1 [rucaparib]
Method in brief: as §1

[2] = compound: CNc1nc(-c2ccc3c(N)n[nH]c3c2)cc(N2C[C@@H](C(=O)NC3CCCCC3)CC[C@H]2C)n1
Method in brief: as §1

encorafenib = compound: COC(=O)N[C@@H](C)CNc1nccc(-c2cn(C(C)C)nc2-c2cc(Cl)cc(NS(C)(=O)=O)c2F)n1 [encorafenib]
Method in brief: as §1

[3] = compound: COC(=O)[C@H](CCSC)NC(=O)C1=C(C=C(C=C1)NC[C@H](CS)N)C2=CC=CC=C2
Method in brief: as §1

[4] = compound: COC1=CC=C(C=C1)CN2C=CC3=C2C=C(C=C3)C(=O)NO
Method in brief: as §1

filanesib = compound: CON(C)C(=O)N1N=C(c2cc(F)ccc2F)S[C@@]1(CCCN)c1ccccc1 [filanesib]
Method in brief: as §1

zotarolimus = compound: CO[C@H]1C[C@@H]2CC[C@@H](C)[C@@](O)(O2)C(=O)C(=O)N2CCCC[C@H]2C(=O)O[C@H]([C@H](C)C[C@@H]2CC[C@H](n3cnnn3)[C@H](OC)C2)CC(=O)[C@H](C)/C=C(\C)[C@@H](O)[C@@H](OC)C(=O)[C@H](C)C[C@H](C)/C=C/C=C/C=C/1C [zotarolimus]
Method in brief: as §1

idasanutlin = compound: COc1cc(C(=O)O)ccc1NC(=O)[C@@H]1N[C@@H](CC(C)(C)C)[C@](C#N)(c2ccc(Cl)cc2F)[C@H]1c1cccc(Cl)c1F [idasanutlin]
Method in brief: as §1

alisertib = compound: COc1cc(Nc2ncc3c(n2)-c2ccc(Cl)cc2C(c2c(F)cccc2OC)=NC3)ccc1C(=O)O [alisertib]
Method in brief: as §1

[5] = compound: COc1cc2nc(-c3cc(F)ccc3O)nc(N[C@@H]3CNC[C@H]3C(C)(C)O)c2cc1OC
Method in brief: as §1

gefitinib = compound: COc1cc2ncnc(Nc3ccc(F)c(Cl)c3)c2cc1OCCCN1CCOCC1 [gefitinib]
Method in brief: as §1

[6] = compound: COc1cccc2cc(-c3nc([C@H]4CC[C@H](C(=O)O)CC4)n4ncnc(N)c34)[nH]c12
Method in brief: as §1

lapatinib = compound: CS(=O)(=O)CCNCc1ccc(-c2ccc3ncnc(Nc4ccc(OCc5cccc(F)c5)c(Cl)c4)c3c2)o1 [lapatinib]
Method in brief: as §1

pictilisib = compound: CS(=O)(=O)N1CCN(Cc2cc3nc(-c4cccc5[nH]ncc45)nc(N4CCOCC4)c3s2)CC1 [pictilisib]
Method in brief: as §1

Measured: log2 fold change

QPRT (UniProt Q15274)
inactive: saracatinib 0.046 | sotrastaurin 0.011 | alvocidib 0.074 | Tubastatin A 0.004 | [1] -0.034 | defactinib 0.02 | rucaparib -0.038 | [2] -0.028 | encorafenib -0.028 | [3] 0.017 | [4] 0.041 | filanesib -0.008 | zotarolimus 0.068 | idasanutlin -0.041 | alisertib -0.026 | [5] -0.018 | gefitinib 0.033 | [6] 0.042 | lapatinib -0.014 | pictilisib 0.034

PXMP4 (UniProt Q9Y6I8)
inactive: saracatinib 0.086 | sotrastaurin -0.003 | alvocidib 0.022 | Tubastatin A -0.058 | [1] -0.029 | defactinib -0.056 | rucaparib 0.018 | [2] -0.023 | encorafenib -0.037 | [3] -0.032 | [4] -0.073 | filanesib -0.098 | zotarolimus -0.049 | idasanutlin -0.065 | alisertib -0.022 | [5] -0.094 | gefitinib -0.028 | [6] 0.096 | lapatinib 0.024 | pictilisib 0.053

PTBP3 isoform 4 (UniProt O95758)
inactive: saracatinib -0.015 | sotrastaurin -0.029 | alvocidib -0.08 | Tubastatin A 0.018 | [1] 0.032 | defactinib -0.226 | rucaparib -0.003 | [2] 0.003 | encorafenib 0.082 | [3] -0.057 | [4] 0.03 | filanesib 0.051 | zotarolimus 0.041 | idasanutlin -0.004 | alisertib -0.042 | [5] -0.038 | gefitinib 0.021 | [6] -0.004 | lapatinib 0.048 | pictilisib 0.003

PSMG3 (UniProt Q9BT73)
inactive: saracatinib -0.068 | sotrastaurin 0.042 | alvocidib -0.037 | Tubastatin A 0.004 | [1] 0.006 | defactinib -0.067 | rucaparib 0.056 | [2] -0.115 | encorafenib 0 | [3] 0.077 | [4] -0.008 | filanesib -0.008 | zotarolimus -0.053 | idasanutlin -0.042 | alisertib -0.144 | [5] -0.036 | gefitinib 0.021 | [6] 0.01 | lapatinib 0.011 | pictilisib 0.122

PTDSS2 (UniProt Q9BVG9)
inactive: saracatinib 0.097 | sotrastaurin 0.054 | alvocidib -0.021 | Tubastatin A -0.109 | [1] 0.082 | defactinib -0.078 | rucaparib -0.006 | [2] -0.021 | encorafenib -0.02 | [3] -0.001 | [4] -0.075 | filanesib -0.062 | zotarolimus -0.011 | idasanutlin -0.034 | alisertib -0.049 | [5] -0.009 | gefitinib 0.065 | [6] -0.016 | lapatinib 0.009 | pictilisib 0.038

PSMF1 (UniProt Q92530)
inactive: saracatinib -0.013 | sotrastaurin 0.024 | alvocidib -0.016 | Tubastatin A -0.001 | [1] 0.029 | defactinib 0 | rucaparib -0.029 | [2] -0.044 | encorafenib -0.013 | [3] -0.003 | [4] 0.035 | filanesib -0.004 | zotarolimus -0.066 | idasanutlin -0.032 | alisertib -0.025 | [5] 0.005 | gefitinib 0.022 | [6] 0.097 | lapatinib 0 | pictilisib 0.058

QDPR (UniProt P09417)
inactive: saracatinib 0.094 | sotrastaurin 0.023 | alvocidib 0.084 | Tubastatin A 0.06 | [1] -0.068 | defactinib 0.005 | rucaparib 0.003 | [2] -0.104 | encorafenib 0.004 | [3] 0.06 | [4] 0.006 | filanesib -0.001 | zotarolimus -0.027 | idasanutlin 0.025 | alisertib -0.028 | [5] -0.024 | gefitinib 0.014 | [6] 0.068 | lapatinib -0.003 | pictilisib -0.026

PTPN1 (UniProt P18031)
inactive: saracatinib -0.142 | sotrastaurin -0.194 | alvocidib 0.032 | Tubastatin A 0.081 | [1] 0.001 | defactinib -0.073 | rucaparib 0.208 | [2] 0.099 | encorafenib 0.206 | [3] -0.16 | [4] 0.003 | filanesib 0.186 | zotarolimus 0.059 | idasanutlin 0.057 | alisertib 0.037 | [5] 0.144 | gefitinib 0.072 | [6] -0.129 | lapatinib 0.024 | pictilisib -0.021
